Among the data in publication PMC12664034, “The E3 ubiquitin ligase SPRYD3-MYCBP2(PAM) regulates mitotic cell fate and ubiquitination of USP11 to control spindle assembly” (The Journal of Biological Chemistry, 2025) are binding values, retold here.

Sequences of proteins named here, by UniProt entry; tags and fusion partners are left off.
UniProt Q969H0: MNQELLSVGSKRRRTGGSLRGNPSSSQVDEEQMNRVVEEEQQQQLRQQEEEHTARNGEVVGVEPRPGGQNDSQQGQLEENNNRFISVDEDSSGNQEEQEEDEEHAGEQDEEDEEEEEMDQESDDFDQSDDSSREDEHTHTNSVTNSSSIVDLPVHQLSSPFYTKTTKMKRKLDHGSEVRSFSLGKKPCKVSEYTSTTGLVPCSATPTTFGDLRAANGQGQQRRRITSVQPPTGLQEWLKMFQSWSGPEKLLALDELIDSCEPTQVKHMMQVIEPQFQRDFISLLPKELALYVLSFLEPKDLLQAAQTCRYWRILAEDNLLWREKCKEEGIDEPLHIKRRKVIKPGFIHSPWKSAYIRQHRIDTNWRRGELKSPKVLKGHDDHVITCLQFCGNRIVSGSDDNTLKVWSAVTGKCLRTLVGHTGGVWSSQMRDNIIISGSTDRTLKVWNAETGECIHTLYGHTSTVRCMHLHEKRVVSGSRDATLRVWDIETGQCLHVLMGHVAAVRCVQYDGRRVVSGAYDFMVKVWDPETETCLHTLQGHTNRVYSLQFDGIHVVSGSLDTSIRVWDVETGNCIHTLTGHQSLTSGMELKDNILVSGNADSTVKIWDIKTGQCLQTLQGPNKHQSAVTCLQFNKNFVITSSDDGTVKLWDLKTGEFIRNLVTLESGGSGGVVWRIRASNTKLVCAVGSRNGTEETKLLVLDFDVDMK
UniProt O75592: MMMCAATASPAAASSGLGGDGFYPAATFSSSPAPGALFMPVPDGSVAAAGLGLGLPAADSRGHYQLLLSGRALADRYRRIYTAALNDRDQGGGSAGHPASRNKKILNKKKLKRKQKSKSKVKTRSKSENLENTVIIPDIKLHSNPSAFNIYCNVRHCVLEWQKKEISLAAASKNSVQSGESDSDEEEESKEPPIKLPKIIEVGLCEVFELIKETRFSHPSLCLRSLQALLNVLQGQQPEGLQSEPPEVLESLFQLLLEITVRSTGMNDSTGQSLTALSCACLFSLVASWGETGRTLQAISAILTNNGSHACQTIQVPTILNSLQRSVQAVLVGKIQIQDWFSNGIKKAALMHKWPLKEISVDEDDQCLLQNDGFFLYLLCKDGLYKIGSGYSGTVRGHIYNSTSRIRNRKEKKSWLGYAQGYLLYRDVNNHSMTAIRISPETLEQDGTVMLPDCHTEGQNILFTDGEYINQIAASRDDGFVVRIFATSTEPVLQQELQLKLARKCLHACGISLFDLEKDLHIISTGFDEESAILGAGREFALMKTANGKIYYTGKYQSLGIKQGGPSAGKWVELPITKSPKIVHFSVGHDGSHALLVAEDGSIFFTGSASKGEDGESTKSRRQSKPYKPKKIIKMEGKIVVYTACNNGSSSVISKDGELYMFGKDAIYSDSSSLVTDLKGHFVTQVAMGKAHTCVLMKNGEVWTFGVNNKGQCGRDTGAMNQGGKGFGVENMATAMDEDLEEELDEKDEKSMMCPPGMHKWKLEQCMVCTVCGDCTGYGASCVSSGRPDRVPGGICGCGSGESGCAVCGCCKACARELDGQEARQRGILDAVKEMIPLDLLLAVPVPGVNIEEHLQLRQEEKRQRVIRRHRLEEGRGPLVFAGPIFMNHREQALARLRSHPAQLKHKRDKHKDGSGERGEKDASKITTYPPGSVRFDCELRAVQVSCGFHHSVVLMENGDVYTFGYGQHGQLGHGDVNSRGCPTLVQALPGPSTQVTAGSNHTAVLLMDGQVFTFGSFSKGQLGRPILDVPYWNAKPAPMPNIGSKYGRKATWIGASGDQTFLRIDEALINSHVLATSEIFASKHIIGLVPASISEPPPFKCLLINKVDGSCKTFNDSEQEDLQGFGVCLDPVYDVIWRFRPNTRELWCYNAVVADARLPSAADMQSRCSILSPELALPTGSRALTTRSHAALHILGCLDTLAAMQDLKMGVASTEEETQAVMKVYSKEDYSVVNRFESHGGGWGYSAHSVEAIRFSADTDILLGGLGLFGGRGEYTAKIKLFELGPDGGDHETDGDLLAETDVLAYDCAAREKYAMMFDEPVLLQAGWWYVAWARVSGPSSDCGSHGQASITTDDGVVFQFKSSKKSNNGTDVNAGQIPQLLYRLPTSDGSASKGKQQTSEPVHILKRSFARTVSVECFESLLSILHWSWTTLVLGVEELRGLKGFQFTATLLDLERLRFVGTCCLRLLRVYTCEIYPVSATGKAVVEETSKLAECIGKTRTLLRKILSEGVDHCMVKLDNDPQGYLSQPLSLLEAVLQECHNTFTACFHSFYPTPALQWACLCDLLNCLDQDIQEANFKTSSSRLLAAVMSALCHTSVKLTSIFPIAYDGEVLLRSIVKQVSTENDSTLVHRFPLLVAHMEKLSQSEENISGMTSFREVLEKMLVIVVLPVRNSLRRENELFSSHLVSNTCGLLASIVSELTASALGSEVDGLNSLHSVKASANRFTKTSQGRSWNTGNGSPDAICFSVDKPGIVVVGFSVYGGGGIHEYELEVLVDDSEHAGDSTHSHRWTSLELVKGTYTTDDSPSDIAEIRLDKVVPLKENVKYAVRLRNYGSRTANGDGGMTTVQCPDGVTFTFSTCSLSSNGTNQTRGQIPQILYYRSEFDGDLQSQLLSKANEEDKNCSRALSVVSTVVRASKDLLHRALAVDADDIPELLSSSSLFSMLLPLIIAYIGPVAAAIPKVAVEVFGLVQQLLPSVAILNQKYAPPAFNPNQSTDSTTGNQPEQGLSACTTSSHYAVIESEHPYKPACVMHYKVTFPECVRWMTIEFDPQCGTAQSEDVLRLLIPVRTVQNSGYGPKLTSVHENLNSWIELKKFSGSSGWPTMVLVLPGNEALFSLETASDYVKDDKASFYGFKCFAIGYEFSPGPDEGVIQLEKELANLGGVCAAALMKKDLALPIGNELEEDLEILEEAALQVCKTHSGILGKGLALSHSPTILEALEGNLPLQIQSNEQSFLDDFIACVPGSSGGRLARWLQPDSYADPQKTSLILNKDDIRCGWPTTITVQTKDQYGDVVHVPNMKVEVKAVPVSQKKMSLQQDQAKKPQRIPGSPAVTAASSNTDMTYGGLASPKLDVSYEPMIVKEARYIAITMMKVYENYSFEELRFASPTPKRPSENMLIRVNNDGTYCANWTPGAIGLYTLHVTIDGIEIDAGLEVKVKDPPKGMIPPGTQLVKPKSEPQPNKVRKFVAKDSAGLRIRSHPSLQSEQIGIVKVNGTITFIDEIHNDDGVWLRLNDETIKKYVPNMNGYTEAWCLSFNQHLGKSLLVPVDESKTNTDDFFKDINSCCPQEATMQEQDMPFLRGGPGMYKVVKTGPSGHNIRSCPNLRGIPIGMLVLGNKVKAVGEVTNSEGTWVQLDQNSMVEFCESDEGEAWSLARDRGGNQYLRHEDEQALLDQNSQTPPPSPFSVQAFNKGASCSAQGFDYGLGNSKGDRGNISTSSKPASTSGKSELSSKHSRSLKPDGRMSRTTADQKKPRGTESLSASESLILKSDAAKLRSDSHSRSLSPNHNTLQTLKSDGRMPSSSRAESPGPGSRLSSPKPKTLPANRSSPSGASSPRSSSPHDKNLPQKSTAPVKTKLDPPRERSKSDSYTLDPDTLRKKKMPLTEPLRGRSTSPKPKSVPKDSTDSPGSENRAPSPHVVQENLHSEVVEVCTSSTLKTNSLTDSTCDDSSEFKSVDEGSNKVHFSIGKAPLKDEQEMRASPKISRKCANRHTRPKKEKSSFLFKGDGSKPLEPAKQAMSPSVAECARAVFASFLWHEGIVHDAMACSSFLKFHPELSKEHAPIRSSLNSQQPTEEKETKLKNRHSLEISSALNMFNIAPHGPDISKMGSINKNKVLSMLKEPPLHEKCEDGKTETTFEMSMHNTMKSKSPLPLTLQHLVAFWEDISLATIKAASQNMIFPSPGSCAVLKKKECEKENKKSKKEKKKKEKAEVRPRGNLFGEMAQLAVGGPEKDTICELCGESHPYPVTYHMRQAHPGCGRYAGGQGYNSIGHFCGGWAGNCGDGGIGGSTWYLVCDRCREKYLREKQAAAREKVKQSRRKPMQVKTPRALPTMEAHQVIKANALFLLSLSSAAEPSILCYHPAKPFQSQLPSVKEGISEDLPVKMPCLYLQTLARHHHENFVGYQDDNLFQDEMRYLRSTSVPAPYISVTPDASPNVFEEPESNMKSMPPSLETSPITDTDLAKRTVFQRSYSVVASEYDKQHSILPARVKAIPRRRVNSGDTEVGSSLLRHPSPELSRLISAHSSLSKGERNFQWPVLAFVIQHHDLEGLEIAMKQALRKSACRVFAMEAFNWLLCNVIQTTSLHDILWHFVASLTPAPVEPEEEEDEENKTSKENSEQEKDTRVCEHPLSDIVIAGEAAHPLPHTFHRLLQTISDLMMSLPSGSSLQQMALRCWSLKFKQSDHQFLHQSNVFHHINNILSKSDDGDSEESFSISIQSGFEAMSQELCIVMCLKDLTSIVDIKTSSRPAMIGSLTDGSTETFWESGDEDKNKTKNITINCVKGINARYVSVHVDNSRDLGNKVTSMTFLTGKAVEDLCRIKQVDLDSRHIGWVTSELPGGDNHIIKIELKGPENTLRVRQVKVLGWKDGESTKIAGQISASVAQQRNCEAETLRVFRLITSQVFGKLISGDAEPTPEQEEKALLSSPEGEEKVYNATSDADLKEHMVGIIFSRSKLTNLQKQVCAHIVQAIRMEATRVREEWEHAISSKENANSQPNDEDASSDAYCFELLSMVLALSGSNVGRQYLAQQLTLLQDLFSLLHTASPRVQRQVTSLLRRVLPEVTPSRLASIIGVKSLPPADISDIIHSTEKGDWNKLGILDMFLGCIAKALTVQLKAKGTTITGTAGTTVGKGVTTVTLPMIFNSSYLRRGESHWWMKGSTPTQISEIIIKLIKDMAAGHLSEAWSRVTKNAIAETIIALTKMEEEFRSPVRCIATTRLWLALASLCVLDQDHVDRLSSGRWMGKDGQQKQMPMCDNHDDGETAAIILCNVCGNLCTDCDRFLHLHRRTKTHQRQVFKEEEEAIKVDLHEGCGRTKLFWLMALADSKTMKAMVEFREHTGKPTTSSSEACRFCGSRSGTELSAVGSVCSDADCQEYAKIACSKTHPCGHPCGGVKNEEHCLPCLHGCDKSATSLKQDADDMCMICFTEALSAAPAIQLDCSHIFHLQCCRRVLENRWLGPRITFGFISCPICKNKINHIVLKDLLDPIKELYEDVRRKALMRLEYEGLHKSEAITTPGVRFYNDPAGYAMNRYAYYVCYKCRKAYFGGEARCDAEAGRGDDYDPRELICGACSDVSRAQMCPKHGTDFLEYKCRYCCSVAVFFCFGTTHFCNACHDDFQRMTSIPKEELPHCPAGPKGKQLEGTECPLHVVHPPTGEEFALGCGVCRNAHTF
UniProt P63208: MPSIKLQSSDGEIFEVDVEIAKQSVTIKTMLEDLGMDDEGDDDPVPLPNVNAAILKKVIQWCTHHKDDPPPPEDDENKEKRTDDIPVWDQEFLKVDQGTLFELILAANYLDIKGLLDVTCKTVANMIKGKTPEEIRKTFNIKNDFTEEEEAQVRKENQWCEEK
UniProt P51784: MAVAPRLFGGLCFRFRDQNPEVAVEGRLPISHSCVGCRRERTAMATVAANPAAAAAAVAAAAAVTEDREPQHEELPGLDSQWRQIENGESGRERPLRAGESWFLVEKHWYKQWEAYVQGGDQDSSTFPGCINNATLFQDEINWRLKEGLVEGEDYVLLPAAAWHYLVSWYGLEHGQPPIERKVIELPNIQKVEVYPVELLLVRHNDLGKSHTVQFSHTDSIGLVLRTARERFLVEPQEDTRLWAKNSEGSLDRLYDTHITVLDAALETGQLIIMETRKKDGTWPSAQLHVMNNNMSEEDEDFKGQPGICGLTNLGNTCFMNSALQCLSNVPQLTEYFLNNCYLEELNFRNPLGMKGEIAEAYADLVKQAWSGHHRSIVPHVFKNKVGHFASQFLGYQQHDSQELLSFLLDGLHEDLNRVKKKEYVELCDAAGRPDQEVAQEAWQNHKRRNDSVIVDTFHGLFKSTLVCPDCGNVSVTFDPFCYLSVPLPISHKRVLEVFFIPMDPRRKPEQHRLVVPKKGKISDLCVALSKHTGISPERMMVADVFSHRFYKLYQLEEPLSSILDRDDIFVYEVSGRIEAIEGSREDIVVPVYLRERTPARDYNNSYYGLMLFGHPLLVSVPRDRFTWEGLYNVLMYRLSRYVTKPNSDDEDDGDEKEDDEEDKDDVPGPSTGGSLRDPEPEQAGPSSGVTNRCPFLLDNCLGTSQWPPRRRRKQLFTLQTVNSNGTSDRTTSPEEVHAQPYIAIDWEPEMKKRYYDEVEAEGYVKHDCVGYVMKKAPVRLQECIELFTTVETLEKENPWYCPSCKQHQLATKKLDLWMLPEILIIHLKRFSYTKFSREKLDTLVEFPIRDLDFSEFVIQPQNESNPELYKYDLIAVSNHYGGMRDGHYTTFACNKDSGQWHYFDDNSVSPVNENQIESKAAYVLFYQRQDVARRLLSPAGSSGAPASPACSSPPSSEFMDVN

Like-named read-outs stand apart in the source and are kept apart here. These are yes or no findings as the source states them, for the method shown. Binding seen in cells or lysates may run through a third protein. Here binding means that the protein was enriched with, or labelled near, the bait; the list need not be complete. Sequences can lack the tags named with a protein.

Common to all, as to assay: affinity purification with mass spectrometry; Flag-tagged bait (Flag-FBXO45 or Flag-SPRYD3) expressed 30 h in HEK293T WT cells; NP-40 buffer lysate; Flag-M2 beads overnight; elution with 3x Flag peptide; LC-MS/MS, LFQ against Flag-EV, n = 4
The target of experiment [1] is T1, Flag-FBXO45 (UniProt P0C2W1).
T1 sequence: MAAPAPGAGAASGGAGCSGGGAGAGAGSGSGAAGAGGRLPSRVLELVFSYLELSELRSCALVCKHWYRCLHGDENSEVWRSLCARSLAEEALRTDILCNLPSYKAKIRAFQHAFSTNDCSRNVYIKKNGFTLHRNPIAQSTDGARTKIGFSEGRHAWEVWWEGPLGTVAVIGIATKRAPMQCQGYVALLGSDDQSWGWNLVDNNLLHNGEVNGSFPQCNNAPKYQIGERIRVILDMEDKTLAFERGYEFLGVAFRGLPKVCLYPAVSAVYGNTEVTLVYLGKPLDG

Experiment [2] deals with T2, Flag-SPRYD3 (UniProt Q8NCJ5).
T2 sequence: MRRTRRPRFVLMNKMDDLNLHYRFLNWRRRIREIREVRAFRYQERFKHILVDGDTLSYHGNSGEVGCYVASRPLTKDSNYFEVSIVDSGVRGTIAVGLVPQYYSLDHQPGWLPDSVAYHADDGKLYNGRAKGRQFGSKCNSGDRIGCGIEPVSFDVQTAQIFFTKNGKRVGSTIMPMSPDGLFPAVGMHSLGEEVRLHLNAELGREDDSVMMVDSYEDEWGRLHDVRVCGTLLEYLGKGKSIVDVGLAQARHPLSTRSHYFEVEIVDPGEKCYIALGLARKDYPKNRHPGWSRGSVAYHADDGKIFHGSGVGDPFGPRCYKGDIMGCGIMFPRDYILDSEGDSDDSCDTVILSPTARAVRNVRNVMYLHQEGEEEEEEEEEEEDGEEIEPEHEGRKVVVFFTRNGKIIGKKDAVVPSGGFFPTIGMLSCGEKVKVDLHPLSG

The target of experiment [3] is T1, Flag-FBXO45. This is another data set of the same source.
Experiment [4] concerns the target T2, Flag-SPRYD3. The source holds these as a separate data set.

With “endogenous FBXW7 (from UniProt Q969H0 1-707)”, the binding result with Flag-FBXO45 [1] is on record as “binds”.

Turning to “endogenous MYCBP2 (from UniProt O75592 1-4678)”, the binding entry with Flag-FBXO45 [1] was “binds”.

On to “endogenous SKP1 (from UniProt P63208 1-163)”, for which the binding result with Flag-FBXO45 [1] is “binds”.

In the case of “endogenous USP11 (from UniProt P51784 1-963) (enzyme)”, in the experiment with Flag-SPRYD3 [2], the binding entry is “binds”.

B1: endogenous SPRYD3 (protein, UniProt Q8NCJ5 1-442)
chain: MRRTRRPRFVLMNKMDDLNLHYRFLNWRRRIREIREVRAFRYQERFKHILVDGDTLSYHGNSGEVGCYVASRPLTKDSNYFEVSIVDSGVRGTIAVGLVPQYYSLDHQPGWLPDSVAYHADDGKLYNGRAKGRQFGSKCNSGDRIGCGIEPVSFDVQTAQIFFTKNGKRVGSTIMPMSPDGLFPAVGMHSLGEEVRLHLNAELGREDDSVMMVDSYEDEWGRLHDVRVCGTLLEYLGKGKSIVDVGLAQARHPLSTRSHYFEVEIVDPGEKCYIALGLARKDYPKNRHPGWSRGSVAYHADDGKIFHGSGVGDPFGPRCYKGDIMGCGIMFPRDYILDSEGDSDDSCDTVILSPTARAVRNVRNVMYLHQEGEEEEEEEEEEEDGEEIEPEHEGRKVVVFFTRNGKIIGKKDAVVPSGGFFPTIGMLSCGEKVKVDLHPLSG
On to B1, for which, in the experiment with Flag-FBXO45 [3], the binding result is recorded as “binds”.

B2: endogenous FBXO45 (protein, UniProt P0C2W1 1-286)
chain: MAAPAPGAGAASGGAGCSGGGAGAGAGSGSGAAGAGGRLPSRVLELVFSYLELSELRSCALVCKHWYRCLHGDENSEVWRSLCARSLAEEALRTDILCNLPSYKAKIRAFQHAFSTNDCSRNVYIKKNGFTLHRNPIAQSTDGARTKIGFSEGRHAWEVWWEGPLGTVAVIGIATKRAPMQCQGYVALLGSDDQSWGWNLVDNNLLHNGEVNGSFPQCNNAPKYQIGERIRVILDMEDKTLAFERGYEFLGVAFRGLPKVCLYPAVSAVYGNTEVTLVYLGKPLDG
Turning to B2, the binding entry in the experiment with Flag-SPRYD3 [4] is listed as “binds”.

B3: endogenous RAE1 (protein, UniProt P78406 1-368)
chain: MSLFGTTSGFGTSGTSMFGSATTDNHNPMKDIEVTSSPDDSIGCLSFSPPTLPGNFLIAGSWANDVRCWEVQDSGQTIPKAQQMHTGPVLDVCWSDDGSKVFTASCDKTAKMWDLSSNQAIQIAQHDAPVKTIHWIKAPNYSCVMTGSWDKTLKFWDTRSSNPMMVLQLPERCYCADVIYPMAVVATAERGLIVYQLENQPSEFRRIESPLKHQHRCVAIFKDKQNKPTGFALGSIEGRVAIHYINPPNPAKDNFTFKCHRSNGTNTSAPQDIYAVNGIAFHPVHGTLATVGSDGRFSFWDKDARTKLKTSEQLDQPISACCFNHNGNIFAYASSYDWSKGHEFYNPQKKNYIFLRNAAEELKPRNKK
Turning to B3, the binding entry with Flag-SPRYD3 [4] is “binds”.
